Data as given in patent US20240216369A1, “THE USE OF A SPLICING MODULATOR FOR A TREATMENT SLOWING PROGRESSION OF HUNTINGTON'S DISEASE” (Novartis AG, priority 2019, published 2024).

Tested on: mutant HTT protein
Test: Mouse population PK/PD turnover model based on BacHD mouse
Assay type: in vivo
Excerpt: For the development of the PK/PD relationship, the concentration of mutant HTT protein in the brain of BacHD mice and its changes after branaplam administration were used as PD biomarker (Example 1a). To increase the data base, all concentrations of the mutant HTT protein were pooled. The correlation between branaplam concentrations in plasma and the mutant HTT protein concentrations in the brain were investigated by means of a turnover model (described below) considering the inhibition of the production of mutant HTT protein in the brain. Since mutant HTT protein was determined in brain cortex and brain striatum, the PK/PD correlations were executed for both brain parts separately. […] For the execution of the population PK/PD model, the PK parameters (presented in Table 6) from the previously described population PK model were fixed and the PD parameters were calculated. The Monolix software (Version 2018R1, Lixoft) and its turnover model described in the library (pkpd/oral1_2cpt_SigmoidindirectModelinhibitionKin_TlagkaCIV1QV2R0koutimaxIC50gamma) was used to determine the PD parameters in the mouse. The PD part of the model can be described by the following equation: […]
It has to be noted, that the maximum inhibitory effect was set to 1 and the mutant HTT protein baseline, R0, was set to 1 since only relative changes to the baseline were determined in the BacHD mouse (Example 1a).

CC1(C)CC(Oc2ccc(-c3ccc(-c4cn[nH]c4)cc3O)nn2)CC(C)(C)N1 [Compound 18, 5-(1H-pyrazol-4-yl)-2-(6-((2,2,6,6-tetramethylpiperidin-4-yl)oxy)pyridazin-3-yl)phenol]
kout (degradation rate of mutant HTT protein) (popPD parameters (cortex)): 0.00634 h⁻¹ | kout (degradation rate of mutant HTT protein) (popPD parameters (striatum)): 0.00341 h⁻¹
